Source: article PMC12313066
No constants are given. Whether binding was seen depends on the method and setting. In cells and extracts the contact can be indirect. Some binding calls cover weakened binding; strength is not graded here. For some of these results: Where a sequence is shown, tags or fusion partners need not be part of it.

Legend:
[1] = molecular target: T1, Flag-GPATCH1 (G-patch domain containing 1) (UniProt Q9BRR8); assay: co-IP; HeLa S3 co-transfected with HA-Tax and Flag-WDR83 or Flag-GPATCH1, 48 hours; IP overnight with 5 ug Flag or IgG antibody, rProtein A/G beads, five washes with RIPA lysis buffer, Western blot
T1 sequence: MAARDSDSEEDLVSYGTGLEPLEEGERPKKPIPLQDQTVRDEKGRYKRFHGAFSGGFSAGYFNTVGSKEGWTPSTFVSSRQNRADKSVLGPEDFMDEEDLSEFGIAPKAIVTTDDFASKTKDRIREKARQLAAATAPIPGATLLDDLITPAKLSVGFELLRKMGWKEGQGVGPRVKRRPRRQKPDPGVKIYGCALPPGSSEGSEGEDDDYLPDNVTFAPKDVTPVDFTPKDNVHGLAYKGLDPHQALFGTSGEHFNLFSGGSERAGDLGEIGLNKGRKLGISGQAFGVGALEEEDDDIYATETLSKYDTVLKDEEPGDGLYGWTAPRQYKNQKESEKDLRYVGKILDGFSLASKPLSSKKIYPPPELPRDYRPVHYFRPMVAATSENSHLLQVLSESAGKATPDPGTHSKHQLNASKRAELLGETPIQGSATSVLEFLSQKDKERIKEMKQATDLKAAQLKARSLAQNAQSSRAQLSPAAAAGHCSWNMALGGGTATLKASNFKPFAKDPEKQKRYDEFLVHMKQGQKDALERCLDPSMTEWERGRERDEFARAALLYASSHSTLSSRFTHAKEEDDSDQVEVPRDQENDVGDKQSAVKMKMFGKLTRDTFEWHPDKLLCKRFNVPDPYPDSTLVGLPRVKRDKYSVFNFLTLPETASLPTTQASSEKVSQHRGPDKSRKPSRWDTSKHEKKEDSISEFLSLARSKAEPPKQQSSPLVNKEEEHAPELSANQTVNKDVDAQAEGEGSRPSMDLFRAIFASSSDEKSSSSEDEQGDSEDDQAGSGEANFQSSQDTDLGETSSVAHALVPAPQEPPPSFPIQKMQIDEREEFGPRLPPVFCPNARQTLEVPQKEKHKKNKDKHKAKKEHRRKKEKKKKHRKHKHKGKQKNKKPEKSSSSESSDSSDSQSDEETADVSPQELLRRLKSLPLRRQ

[2] = molecular target: T2, Flag-WDR83 (WD repeat domain 83) (UniProt Q9BRX9); assay: as above
T2 sequence: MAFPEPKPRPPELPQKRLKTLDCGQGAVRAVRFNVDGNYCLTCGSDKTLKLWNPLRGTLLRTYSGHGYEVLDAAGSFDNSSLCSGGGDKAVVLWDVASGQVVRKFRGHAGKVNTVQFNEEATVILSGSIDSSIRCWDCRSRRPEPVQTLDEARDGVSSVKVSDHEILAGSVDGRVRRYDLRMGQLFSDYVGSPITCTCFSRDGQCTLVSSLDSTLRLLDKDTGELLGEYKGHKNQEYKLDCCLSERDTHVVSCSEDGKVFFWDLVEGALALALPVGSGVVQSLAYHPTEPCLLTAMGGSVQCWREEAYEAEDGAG

[3] = molecular target: T3, G-patch domain containing 1 (GPATCH1), endogenous (human (endogenous in HeLa S3, ATL-2 and ATL-T)) (UniProt Q9BRR8); assay: co-IP; endogenous proteins in ATL-2 and ATL-T cells (1 x 10^6 cells); rProtein A/G beads, five washes with RIPA lysis buffer, Western blot; the precipitating antibody is not named for this experiment
T3 sequence: T1 sequence

[4] = molecular target: T4, WD repeat domain 83 (WDR83), endogenous (human (endogenous in HeLa S3, ATL-2 and ATL-T)) (UniProt Q9BRX9); assay: as above
T4 sequence: T2 sequence

Row | Substance | binding [1] | binding [2] | binding [3] | binding [4]
1 | HA-Tax (from UniProt P03409 1-353) | binds | binds | – | –
2 | Tax (endogenous, HTLV-1 infected cells) (from UniProt P03409 1-353) | – | – | binds | binds
